Counter-ions that a name gives are not always drawn. The list shows a part of the results. Single values are uncertain here, since repeats match poorly.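 In a drug-repurposing library screen, luminescence reads luciferase driven by eight TEAD-binding elements, stably integrated into human kidney-derived cells. Compounds scoring over five robust Z scores above the plate mean are called hits.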

Our source for the TEAD-luciferase reporter activity values is the supplement of paper PMC10735217.

This experiment concerns HEK293A TEAD-LUC reporter. Nature of the experiment: TEAD-luciferase reporter activity (YAP activation), robust Z score vs plate; higher = stronger YAP/TEAD activation. To be noted: 24 h.

Take `Oc1ccc(C2CNCCc3c2cc(O)c(O)c3Cl)cc1` (stereo unspecified) [Fenoldopam mesilate]: the TEAD-luciferase reporter activity (compound concentration: 2 uM) was inactive: -0.0233.
Take `Oc1ccc(C2CNCCc3c2cc(O)c(O)c3Cl)cc1` (stereo unspecified): the TEAD-luciferase reporter activity reads like this: (compound concentration: 200 nM) inactive: 1.88; (compound concentration: 10 uM) inactive: 1.31.
Consider `[Cl][Mn][Cl]` [Manganese chloride], for which the TEAD-luciferase reporter activity was inactive: -0.0418 (compound concentration: 200 nM), inactive: 0.9 (compound concentration: 2 uM) and inactive: -1.59 (compound concentration: 10 uM).
For the compound `CN(C)C(=O)NC1CCN(c2nc3ncccc3o2)C1` (stereo unspecified), the TEAD-luciferase reporter activity by setting is: (compound concentration: 200 nM) inactive: 0.0339; (compound concentration: 10 uM) inactive: 0.68.
As to `Cc1cccc(CN2CCCC23Cc2ccccc2CNC3=O)c1` (stereo unspecified), the TEAD-luciferase reporter activity (compound concentration: 200 nM) was inactive: -1.43 and the TEAD-luciferase reporter activity (compound concentration: 10 uM) was inactive: -0.159.
Regarding `O=C(O)CNC(=O)[C@@H](CS)Cc1ccc2c(c1)OCO2`, the TEAD-luciferase reporter activity (compound concentration: 200 nM) was inactive: -0.512, the TEAD-luciferase reporter activity (compound concentration: 2 uM) was inactive: 0.364 and the TEAD-luciferase reporter activity (compound concentration: 10 uM) is inactive: -1.4.
As for `O=C(CCCN1CCC(C(=O)c2ccc(Cl)cc2)CC1)c1ccc(F)cc1`, the TEAD-luciferase reporter activity reads like this: (compound concentration: 200 nM) inactive: 4.29; (compound concentration: 2 uM) inactive: -0.658; (compound concentration: 10 uM) inactive: 0.33.
Turning to `C=C1CC[C@H](O)C/C1=C/C=C1\CCC[C@]2(C)[C@@H]([C@H](C)CCCC(C)(C)O)CC[C@@H]12` [Calcifediol (monohydrate)], under “compound concentration: 2 uM”, the TEAD-luciferase reporter activity was inactive: 0.825.
Turning to `C=C1CC[C@H](O)C/C1=C/C=C1\CCC[C@]2(C)[C@@H]([C@H](C)CCCC(C)(C)O)CC[C@@H]12` [Calcifediol], the TEAD-luciferase reporter activity is inactive: -1.16 (compound concentration: 200 nM) and inactive: 3.04 (compound concentration: 10 uM).
As for `CCN(CC)C(=O)Cc1csc(NS(=O)(=O)c2cccc(Cl)c2C)n1`, the TEAD-luciferase reporter activity is, setting by setting: (compound concentration: 200 nM) inactive: -1.6; (compound concentration: 2 uM) inactive: -2.33; (compound concentration: 10 uM) inactive: 4.79.
As for `Oc1ccc2ccccc2c1Cc1c(O)ccc2ccccc12`, the TEAD-luciferase reporter activity (compound concentration: 200 nM) is inactive: -0.0857, the TEAD-luciferase reporter activity (compound concentration: 2 uM) was inactive: -0.238 and the TEAD-luciferase reporter activity (compound concentration: 10 uM) was inactive: 2.47.
For `CC(C)(N)C(=O)N[C@H](CCCc1ccccc1)C(=O)N1CCC(c2ccccc2CCc2nnn[nH]2)CC1`, the TEAD-luciferase reporter activity reads like this: (compound concentration: 200 nM) inactive: -1.51; (compound concentration: 2 uM) inactive: 0.387; (compound concentration: 10 uM) inactive: -0.175.
As to `O=C(O)CCCC(=O)N1Cc2ccccc2CC2(CCCCN2CC2CCCC2)C1` (stereo unspecified), the TEAD-luciferase reporter activity reads like this: (compound concentration: 200 nM) inactive: 0.336; (compound concentration: 10 uM) inactive: -0.165.
In the case of `COc1cc(CC2c3cc(OC)c(OC)cc3CCN2C)c(Oc2cc3c(cc2OC)-c2c(O)c(OC)cc4c2C(C3)N(C)CC4)cc1OC` (stereo unspecified), the TEAD-luciferase reporter activity (compound concentration: 200 nM) was inactive: -2.54, the TEAD-luciferase reporter activity (compound concentration: 2 uM) is inactive: -0.93 and the TEAD-luciferase reporter activity (compound concentration: 10 uM) was inactive: 0.647.
Regarding `N=C(N)NCCCC(N)C(=O)NCCCN1CCN(CCCNC(=O)C(N)CCCNC(=N)N)CC1` (stereo unspecified) [Ciraparantag], the TEAD-luciferase reporter activity reads like this: (compound concentration: 200 nM) inactive: 0.0529; (compound concentration: 2 uM) inactive: 0.515; (compound concentration: 10 uM) inactive: -0.22.
With `CN1CCOC(COc2cccc3c2N(C)CCC3)C1` (stereo unspecified), the TEAD-luciferase reporter activity by setting is: (compound concentration: 200 nM) inactive: -1.74; (compound concentration: 2 uM) inactive: -0.899; (compound concentration: 10 uM) inactive: 0.617.
Turning to `CN(C)C(=N)NCCC[C@H](N)C(=O)O` [N^G,N^G-Dimethylarginine hydrochloride], the TEAD-luciferase reporter activity reads like this: (compound concentration: 200 nM) inactive: -0.726; (compound concentration: 10 uM) inactive: -0.191.
In the case of `CN(C)C(=N)NCCC[C@H](N)C(=O)O`, under “compound concentration: 2 uM”, the TEAD-luciferase reporter activity is inactive: 0.266.
Same read-out and setting: under `COc1cccc2c1C(=O)c1c(O)c3c(c(O)c1C2=O)C[C@@](O)(/C(CO)=N/NC(=O)CCCCCN1C(=O)C=CC1=O)C[C@@H]3O[C@H]1C[C@H](N)[C@H](O)[C@H](C)O1` [Aldoxorubicin hydrochloride] stands inactive: -0.382.
Regarding `COc1cccc2c1C(=O)c1c(O)c3c(c(O)c1C2=O)C[C@@](O)(/C(CO)=N/NC(=O)CCCCCN1C(=O)C=CC1=O)C[C@@H]3O[C@H]1C[C@H](N)[C@H](O)[C@H](C)O1` [Aldoxorubicin], the TEAD-luciferase reporter activity by setting is: (compound concentration: 200 nM) inactive: -2.83; (compound concentration: 10 uM) inactive: -1.15.
On to `COc1cccc(-c2ccc([C@@H](Oc3cc(-c4ccc(C[C@H](N)C(=O)O)cc4)nc(N)n3)C(F)(F)F)cc2)c1`, for which the TEAD-luciferase reporter activity runs as follows: (compound concentration: 200 nM) inactive: -0.374; (compound concentration: 2 uM) inactive: -1.14; (compound concentration: 10 uM) inactive: 1.84.
On to `CCCNC(=O)c1cn2ncnc(Nc3cc(C(=O)NC4CC4)ccc3C)c2c1C`, for which the TEAD-luciferase reporter activity runs as follows: (compound concentration: 200 nM) inactive: 0.0223; (compound concentration: 2 uM) inactive: -0.619; (compound concentration: 10 uM) inactive: 3.23.
Regarding `CC(CN1c2ccccc2Sc2cccnc21)N(C)C` (stereo unspecified), the TEAD-luciferase reporter activity is inactive: 0.989 (compound concentration: 200 nM), inactive: -0.797 (compound concentration: 2 uM) and inactive: -0.805 (compound concentration: 10 uM).
The like results for `CCOc1cccc(C(CC)n2nc(C(=O)O)c3c2-c2ccc(OCc4cncnc4)cc2CC3)c1` (stereo unspecified) were, in that order, inactive: 0.215, inactive: 2.2 and inactive: 1.15.
On to `CC(C)NC(=O)C1CCCN1c1nc2ncccc2o1` (stereo unspecified), for which the TEAD-luciferase reporter activity was inactive: -1.63 (compound concentration: 200 nM) and inactive: 1.9 (compound concentration: 10 uM).
Consider `O=C(Nc1cccc(C(F)(F)F)c1)c1cccc2cc(Oc3cc(CO)ncn3)ccc12`, for which the TEAD-luciferase reporter activity is inactive: -2.34 (compound concentration: 200 nM), inactive: -0.755 (compound concentration: 2 uM) and inactive: 0.431 (compound concentration: 10 uM).
On to `CCN(CC)CC#CCOC(=O)C(O)(c1ccccc1)C1CCCCC1` (stereo unspecified), for which the TEAD-luciferase reporter activity reads like this: (compound concentration: 200 nM) inactive: 3.21; (compound concentration: 10 uM) inactive: -0.475.
As to `CCN(CC)CC#CCOC(=O)C(O)(c1ccccc1)C1CCCCC1` (stereo unspecified) [esoxybutynin], the TEAD-luciferase reporter activity (compound concentration: 2 uM) is inactive: 1.63.
Take `COc1c(C(C)n2cnc3ncccc32)ccc2c1C=CC(C)(C)O2` (stereo unspecified): the TEAD-luciferase reporter activity by setting is: (compound concentration: 200 nM) inactive: -0.0267; (compound concentration: 2 uM) inactive: 0.763; (compound concentration: 10 uM) inactive: -2.61.
On to `O=C(/C=C\n1cnc(-c2cc(C(F)(F)F)cc(C(F)(F)F)c2)n1)NNc1ccccn1` [Verdinexor], for which the TEAD-luciferase reporter activity is inactive: 3.22 (compound concentration: 200 nM), inactive: -0.89 (compound concentration: 2 uM) and inactive: 1.21 (compound concentration: 10 uM).
